Paper PMC9337993
Construct, isoform or probe ends are uncertain for at least one entry.

How the values were obtained:
[1] = molecular target: SynZur (Zn2SynZur as purified + Zn1SynZur after EDTA) (Synechococcus sp. WH8102) (UniProt Q7U3N0); assay: EMSA; conditions: EMSA: 10 mM Tris pH 8, 50 mM KCl, 2 mM MgCl2, 5% glycerol, 0.05 mg/ml BSA, 1 mM DTT, 3 mM spermidine, 5 ng DNA in 10 ul, room temperature 30 min, gel at 4 C, recombinant protein, label: none (SYBR Green stain), probe letters rebuilt from the primers and the genome
[2] = molecular target: SynZur (Zn2SynZur as purified + Zn1SynZur after EDTA) (Synechococcus sp. WH8102) (UniProt Q7U3N0); assay: EMSA, Ferguson plot; conditions: binds as one dimer; EMSA: 10 mM Tris pH 8, 50 mM KCl, 2 mM MgCl2, 5% glycerol, 0.05 mg/ml BSA, 1 mM DTT, 3 mM spermidine, 5 ng DNA in 10 ul, room temperature 30 min, gel at 4 C; recombinant protein; label: none (SYBR Green stain); probe letters rebuilt from the primers and the genome

Measured: binding result

GTTCCATCCACAGCCACAACGCTTGGCTGGGCCGCCTGCGCCGCGACTGAACAACCCGAGACAACGCCCAGGGCGACCGCCAGACCCTTGACCAAAAGCGCAGGACGCGCCATGACACTCGAATGAGAATGATTATCATTTTTACAGTTCAACGGGTTGGCGCAACCCAATCGCGACCGCATGATGAAGTGAACCCACCGCAGCTGTGACAGAACCGCATTCGTCCATCAAGGGGCATCTAGCAGCCAGGAATCTC (double strand) [PznuA promoter (znuC-znuA intergenic fragment)]
binds: [1]; EDTA-treated SynZur with Zn2+ added back | [1]; Zn2SynZur as purified, 100% binding at 100 nM protein | [2]
